{
  "source": "paper PMC9848269",
  "about": "“Investigation of novel alkyl/benzyl (4-sulphamoylphenyl)carbamimidothioates as carbonic anhydrase inhibitors” (Journal of Enzyme Inhibition and Medicinal Chemistry, 2023)",
  "biological_target": "T1, StCA2 (Salmonella enterica, UniProt O30898)",
  "T1 construct": "gene mig-5; recombinant, obtained in-house; beta-class CA",
  "T1 sequence (O30898 41-246)": "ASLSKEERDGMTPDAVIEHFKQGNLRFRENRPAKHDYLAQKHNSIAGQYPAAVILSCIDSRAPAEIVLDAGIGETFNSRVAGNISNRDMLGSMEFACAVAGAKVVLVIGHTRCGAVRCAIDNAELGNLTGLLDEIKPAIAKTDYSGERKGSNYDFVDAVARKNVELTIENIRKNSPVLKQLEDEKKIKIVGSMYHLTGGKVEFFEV",
  "parameters": "stopped-flow CO2 hydration assay, phenol red 557 nm, TRIS pH 8.4, recombinant beta-CA, 6 h preincubation",
  "settings": "inhibitor",
  "method": "An applied photophysics stopped-flow instrument has been used for assaying the CA-catalysed CO2 hydration activity. Phenol red (at a concentration of 0.2 mM) was used as indicator, working at the absorbance maximum of 557 nm, with 20 mM Hepes (pH 7.5) as buffer for α-CAs or 20 mM TRIS (pH 8.4) as buffer for β-CAs, and 20 mM Na2SO4 (for maintaining constant the ionic strength), following the initial rates of the CA-catalysed CO2 hydration reaction for a period of 10 – 100 s. The CO2 concentrations ranged from 1.7 to 17 mM for the determination of the kinetic parameters and inhibition constants. For each inhibitor, at least six traces of the initial 5 – 10% of the reaction have been used for determining the initial velocity. The uncatalysed rates were determined in the same manner and subtracted from the total observed rates. Stock solutions of inhibitor (0.1 mM) were prepared in distilled – deionised water, and dilutions up to 0.01 nM were done thereafter with the assay buffer. Inhibitor and enzyme solutions were preincubated together for 6 h at room temperature prior to assay in order to allow for the formation of the E – I complex. The inhibition constants were obtained by nonlinear least-squares methods using PRISM 3 and the Cheng–Prusoff equation, as reported earlier[12]^,[13]^,[20]^,[21], and represent the mean from at least three different determinations. […]",
  "data": [
    {"smiles": "CC(=O)Nc1nnc(S(N)(=O)=O)s1", "note": "[AAZ]", "values": [
      {"measurement": "Ki", "value": 84, "unit": "nM"}
    ]}
  ]
}
